# Patent US20190062399A1
# No constants are given. Whether binding was seen depends on the method and setting. Some entries that bind do so weakly or less than the wild type.
# Target: Protein A eluate of the HIC cleaning peak (mixture of all CTLA4-Ig species) (human)
# Test: Protein A affinity chromatography
substance,measurement,value
Protein A (immobilised on chromatography resin) (from UniProt P38507 37-327),binding,binds
